# According to PMC8384837:
# Positions count from the first letter of the chain named. Some of the results follow. At the low end of the ranking, values are background and their order means little.
# How the values were obtained:
# Settings in all cases: yeast three-hybrid, YBZ-1, SC-Leu-His + 0.5 mM 3-AT, 4 days
# [1] = target: T1, PUM1 PUF domain R2-KLQ N899K + Y900L (UniProt Q14671)
# T1 sequence: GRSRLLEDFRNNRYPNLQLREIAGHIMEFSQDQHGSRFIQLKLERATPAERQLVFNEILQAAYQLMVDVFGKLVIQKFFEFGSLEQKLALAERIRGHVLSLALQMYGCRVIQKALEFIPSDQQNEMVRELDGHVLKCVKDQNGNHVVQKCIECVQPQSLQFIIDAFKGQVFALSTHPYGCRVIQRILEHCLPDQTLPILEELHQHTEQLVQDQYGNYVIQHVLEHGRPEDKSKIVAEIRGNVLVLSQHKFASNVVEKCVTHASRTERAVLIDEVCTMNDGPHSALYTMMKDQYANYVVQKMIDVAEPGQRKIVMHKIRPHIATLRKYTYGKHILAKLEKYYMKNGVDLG
# [2] = target: T2, PUM1 PUF domain R2-KRA N899K + Y900R + Q903A (UniProt Q14671)
# T2 sequence: T1 sequence with L73R, Q76A
# [3] = target: T3, PUM1 PUF domain R2-LFC N899L + Y900F + Q903C (UniProt Q14671)
# T3 sequence: T1 sequence with K72L, L73F, Q76C
# [4] = target: T4, PUM1 PUF domain R2-LHR N899L + Y900H + Q903R (UniProt Q14671)
# T4 sequence: T1 sequence with K72L, L73H, Q76R
# [5] = target: T5, PUM1 PUF domain R2-LIM N899L + Y900I + Q903M (UniProt Q14671)
# T5 sequence: T1 sequence with K72L, L73I, Q76M
# [6] = target: T6, PUM1 PUF domain R2-LLL N899L + Y900L + Q903L (UniProt Q14671)
# T6 sequence: T1 sequence with K72L, Q76L
# [7] = target: T7, PUM1 PUF domain R2-LLY N899L + Y900L + Q903Y (UniProt Q14671)
# T7 sequence: T1 sequence with K72L, Q76Y
# [8] = target: T8, PUM1 PUF domain R2-LWM N899L + Y900W + Q903M (UniProt Q14671)
# T8 sequence: T1 sequence with K72L, L73W, Q76M
# [9] = target: T9, PUM1 PUF domain R2-LYL N899L + Q903L (UniProt Q14671)
# T9 sequence: T1 sequence with K72L, L73Y, Q76L
# [10] = target: T10, PUM1 PUF domain R2-MWG N899M + Y900W + Q903G (UniProt Q14671)
# T10 sequence: T1 sequence with K72M, L73W, Q76G
# [11] = target: T11, PUM1 PUF domain R2-PWE N899P + Y900W + Q903E (UniProt Q14671)
# T11 sequence: T1 sequence with K72P, L73W, Q76E
# [12] = target: T12, PUM1 PUF domain R2-PYE N899P + Q903E (UniProt Q14671)
# T12 sequence: T1 sequence with K72P, L73Y, Q76E
# [13] = target: T13, PUM1 PUF domain R2-RKQ N899R + Y900K (UniProt Q14671)
# T13 sequence: T1 sequence with K72R, L73K
# [14] = target: T14, PUM1 PUF domain R2-RKV N899R + Y900K + Q903V (UniProt Q14671)
# T14 sequence: T1 sequence with K72R, L73K, Q76V
# [15] = target: T15, PUM1 PUF domain R2-RKW N899R + Y900K + Q903W (UniProt Q14671)
# T15 sequence: T1 sequence with K72R, L73K, Q76W
# [16] = target: T16, PUM1 PUF domain R2-RQC N899R + Y900Q + Q903C (UniProt Q14671)
# T16 sequence: T1 sequence with K72R, L73Q, Q76C
# [17] = target: T17, PUM1 PUF domain R2-RRC N899R + Y900R + Q903C (UniProt Q14671)
# T17 sequence: T1 sequence with K72R, L73R, Q76C
# [18] = target: T18, PUM1 PUF domain R2-RVN N899R + Y900V + Q903N (UniProt Q14671)
# T18 sequence: T1 sequence with K72R, L73V, Q76N
# [19] = target: T19, PUM1 PUF domain R2-RVT N899R + Y900V + Q903T (UniProt Q14671)
# T19 sequence: T1 sequence with K72R, L73V, Q76T
# [20] = target: T20, PUM1 PUF domain R2-SWW N899S + Y900W + Q903W (UniProt Q14671)
# T20 sequence: T1 sequence with K72S, L73W, Q76W
sequence,measurement,setting,value
GGCUAGAACUAGUGGAUCCCCCGGCGCCCGGCGGCUCGAGCCCGGGUAAGUGUAAAUAGUCUGCAUGCCGCCGGGCGCCAUGCCUGCAGGUCGACUCUAGAAAACAUG,binding signal (log2 enrichment (interaction score)),[1],< -5.39
same,binding signal (log2 enrichment (interaction score)),[2],< -7.68
same,binding signal (log2 enrichment (interaction score)),[3],< -6.07
same,binding signal (log2 enrichment (interaction score)),[4],< -6.57
same,binding signal (log2 enrichment (interaction score)),[5],< -6.71
same,binding signal (log2 enrichment (interaction score)),[6],-9.74
same,binding signal (log2 enrichment (interaction score)),[7],< -9.09
same,binding signal (log2 enrichment (interaction score)),[8],< -7.13
same,binding signal (log2 enrichment (interaction score)),[9],< -6.48
same,binding signal (log2 enrichment (interaction score)),[10],< -6.63
same,binding signal (log2 enrichment (interaction score)),[11],< -7.06
same,binding signal (log2 enrichment (interaction score)),[12],< -7.36
same,binding signal (log2 enrichment (interaction score)),[13],< -7.08
same,binding signal (log2 enrichment (interaction score)),[14],-7.13
same,binding signal (log2 enrichment (interaction score)),[15],< -7.94
same,binding signal (log2 enrichment (interaction score)),[16],< -6.11
same,binding signal (log2 enrichment (interaction score)),[17],< -9.21
same,binding signal (log2 enrichment (interaction score)),[18],< -7.41
same,binding signal (log2 enrichment (interaction score)),[19],< -9.04
same,binding signal (log2 enrichment (interaction score)),[20],< -7.37

# Part of the list above in another layout:
sequence	measurement	setting	value
GGCUAGAACUAGUGGAUCCCCCGGCGCCCGGCGGCUCGAGCCCGGGUAAGUGUAAAUAGUCUGCAUGCCGCCGGGCGCCAUGCCUGCAGGUCGACUCUAGAAAACAUG	binding signal (log2 enrichment (interaction score))	[13]	< -7.08
same	binding signal (log2 enrichment (interaction score))	[16]	< -6.11
same	binding signal (log2 enrichment (interaction score))	[17]	< -9.21
same	binding signal (log2 enrichment (interaction score))	[18]	< -7.41
